Measurements from “University of Dundee, Small-Polar-MMV Screening Library” (2021), ChEMBL document CHEMBL3988442.

The chains behind the UniProt entries cited, without tags or fusion partners.
UniProt E9BF75, entry or part of it: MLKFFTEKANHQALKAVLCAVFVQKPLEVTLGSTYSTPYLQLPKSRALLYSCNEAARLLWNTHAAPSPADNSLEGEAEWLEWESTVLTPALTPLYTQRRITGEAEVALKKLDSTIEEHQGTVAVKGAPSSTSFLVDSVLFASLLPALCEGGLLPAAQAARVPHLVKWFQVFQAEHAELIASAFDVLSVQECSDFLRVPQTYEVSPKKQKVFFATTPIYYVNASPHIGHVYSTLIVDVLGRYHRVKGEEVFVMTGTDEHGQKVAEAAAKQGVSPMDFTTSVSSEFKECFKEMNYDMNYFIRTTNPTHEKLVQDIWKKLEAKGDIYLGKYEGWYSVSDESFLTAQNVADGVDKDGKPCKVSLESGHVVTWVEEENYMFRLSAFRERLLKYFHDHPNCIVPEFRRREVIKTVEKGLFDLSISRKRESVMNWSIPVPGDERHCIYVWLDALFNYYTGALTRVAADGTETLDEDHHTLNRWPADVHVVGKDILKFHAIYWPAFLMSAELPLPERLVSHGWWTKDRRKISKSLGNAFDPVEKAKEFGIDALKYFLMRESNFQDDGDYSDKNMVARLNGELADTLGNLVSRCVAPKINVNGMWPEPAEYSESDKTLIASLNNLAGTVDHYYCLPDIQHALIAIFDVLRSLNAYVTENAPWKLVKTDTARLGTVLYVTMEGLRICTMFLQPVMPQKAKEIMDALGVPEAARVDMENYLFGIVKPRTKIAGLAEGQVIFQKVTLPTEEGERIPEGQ

A: 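Assay on Mycobacterium tuberculosis, filed only as a heat shock assay from Cornell; the read-out is not stated. The concentration is filed as 10 mM, unlikely as a test dose, so the dose is not known. Higher reads as stronger inhibition (inferred: compounds with an IC50 in retests scored well above the rest). Size under these conditions: about 69,000 compounds, about 930 of them at 50% or above in at least one test.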
B: 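Methionyl-tRNA synthetase (putative), Leishmania donovani (UniProt E9BF75). Primary screen of methionyl-tRNA synthetase; the read-out is not stated. The test concentration is not given. Values are per cent inhibition. Of about 68,000 compounds tested this way, about 24 (0.035%) reached 50% or more in at least one test.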
C: 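Whole-cell assay for inhibitors of Mycobacterium tuberculosis growth, labelled Cornell in the record; the read-out is not stated. The concentration is filed as 10 mM, unlikely as a test dose, so the dose is not known. Higher means stronger inhibition (inferred from two other growth screens of the library). Size under these conditions: about 53,000 compounds, about 900 of them at 50% or above in at least one test.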

All values are in %.
How 0% and 100% were set is not recorded. Most values in the screen are low, and negative values occur.
This is an unselected part of the compounds tested.

{"smiles": "CSCCc1nc(-c2ccc3c(c2)OCO3)n(C)n1", "A": 1.842, "B": 9.192, "C": 27.13}
{"smiles": "O=C(O)[C@]12CCCN(Cc3cccs3)C[C@H]1CN(c1ncccn1)C2", "B": 4.886}
{"smiles": "O=C(C1CCC1)N1C[C@@H]2CC[C@H](C1)N(S(=O)(=O)c1cccnc1)C2", "B": 7.843}
{"smiles": "O=S(=O)(NCc1ccc(S(=O)(=O)N2CCCC2)s1)c1ccc(Cl)c(Cl)c1", "A": 10.43, "B": 1.515, "C": 41.85}
{"smiles": "O=C1CN(c2ccc(CNC(=O)NCc3ccoc3)cc2)CCN1", "A": 3.629, "B": 21.94, "C": -73.69}
{"smiles": "Cc1noc([C@@H]2C[C@H]3CN(Cc4scnc4C)C[C@H]3O2)n1", "B": 8.591}
{"smiles": "COCCNC(=O)NC(c1ccccc1)c1ccccc1OC", "stereo": "stereo not drawn", "A": 15.11, "B": 16.84}
{"smiles": "Cc1sc(C(=O)N(C)S(C)(=O)=O)cc1-c1ccc(F)cc1", "A": -27.47, "B": 13.69, "C": 40.57}
{"smiles": "CN(Cc1ccco1)C[C@H]1OC[C@@H]2CCN(Cc3nccs3)C[C@@H]21", "B": 15.48}
{"smiles": "Cc1nn(C)c(C)c1C1CCCN1Cc1ccc(C(N)=O)cc1", "stereo": "stereo not drawn", "A": -5.81, "B": 23.38}
{"smiles": "Cc1nonc1C(=O)N1CC[C@@]2(O)CCN(C3CCCCC3)C[C@H]2C1", "B": 8.591}
{"smiles": "CC(=O)c1ccccc1C(=O)NCC1(CO)CC1", "A": -19.01, "B": 1.087}
{"smiles": "CCCOc1ccc(C(=O)N2C[C@@H](CN3CCCC3)[C@@H](CO)C2)cc1Cl", "A": 4.367, "B": 6.69, "C": 6.823}
{"smiles": "O=C(O)c1cccc(CC2CCN(c3ncccn3)CC2)c1", "A": -25.74, "B": -3.78, "C": -1.551}
{"smiles": "O=C(NCC1CC1)C1CSCN1S(=O)(=O)c1cc(F)cc(F)c1", "stereo": "stereo not drawn", "A": -7.487, "B": 14.5, "C": 8.635}
{"smiles": "CCCc1nc(N2CCCC3(CCNC3)C2)c2cnn(C)c2n1", "stereo": "stereo not drawn", "A": 36.89, "B": 8.992, "C": -8.792}
{"smiles": "Cc1nc(N2CCOCC2)nc2c1CCN(C(=O)C1(C#N)CC1)CC2", "A": -9.76, "B": 14.57, "C": -87.82}
{"smiles": "Cc1cc(C(F)(F)F)cc(=O)n1CCn1cc(Cl)cn1", "A": -3.389, "B": 10.05, "C": -3.592}
{"smiles": "CC(=O)N1CCC(Cc2nccnc2-c2c(C)n[nH]c2C)C1", "stereo": "stereo not drawn", "A": -0.04324, "B": 4.167, "C": 8.615}
{"smiles": "O=C(O)C(F)(F)F.[H][C@@]12CCCO[C@]1([H])[C@H](NC(=O)c1nccn1C)CN2CC1CCOCC1", "A": 29.52, "C": -3.516}
{"smiles": "CCN(CC)c1nc2ccsc2c(=O)n1CCC(=O)NC1CCCC1", "A": -4.394, "B": 12.23, "C": 35.81}
{"smiles": "CCS(=O)(=O)N1CCN(Cc2ccncc2)c2nc(C)ccc2C1.O=C(O)C(F)(F)F.O=C(O)C(F)(F)F", "A": -8.744, "C": 17.57}
{"smiles": "Cn1c2c(ccc1=O)CCN(Cc1ccoc1)CC2", "B": 18.4}
{"smiles": "CC(C)c1n[nH]c(C2CN(C(=O)CCCn3cccn3)CCO2)n1", "stereo": "stereo not drawn", "A": 13.07, "B": 11.5, "C": -9.432}
{"smiles": "CC(Cn1cccn1)NC(=O)CCc1ccc(S(N)(=O)=O)cc1", "stereo": "stereo not drawn", "A": -8.387, "B": 17.36}
{"smiles": "CCn1cc(-c2cc(C(F)(F)F)nn2CCC#N)cn1", "A": -13.64, "B": 15.01, "C": -0.8602}